In article PMC6270994, “The Hydractinia echinata Test-System. III: Structure-Toxicity Relationship Study of Some Azo-, Azo-Anilide, and Diazonium Salt Derivatives” (Molecules, 2014):

Tested on: Hydractinia echinata
Assay: Hydractinia echinata test system (HeTS): reduction of Cs+-induced metamorphosis of larvae
Type: in vivo
Conditions: compared with Amaranth (57)
Experimental: The average (C) concentrations of these values were calculated too. The MRC50 value calculations (Chicu et al.) result from the graphical representation of the metamorphosis variation, M (%), (Y axis) function of the xenobiotic’s concentration (mol/L) (X axis), where the metamorphosis decreases with the rise of the xenobiotic’s concentration. Thus, the MRC50 value represents the xenobiotic’s concentration (mol/L) necessary for a 50% decrease of metamorphosis, with respect to control.
For each concentration of substance experiments were performed in triplicate and were repeated at least twice.
Colonies of H. echinata (Biologische Anstalt, Helgoland, Germany) were used to obtain eggs and larvae. The culture medium was artificial seawater (980 mosmol, pH 8.2, 18 °C). In laboratory an artificial metamorphosis can be synchronically started by the introduction of Cs^+ ions or by using seawater without Mg^2+ ions; it then lasts only 24 h. Under the action of external stimulus of Cs^+ ions or Cs^+ ions together with the tested compounds, one part of larvae further lives as such and another one is metamorphosized to the polyp form. […]
H. echinata larvae were exposed to seawater containing Cs^+ and simultaneously one of the test substances for 3 h. The percentage of animals that underwent metamorphosis (development into polyps) was determined after 24 h. […]

With O=S(=O)([O-])c1ccc(N=Nc2c(O)ccc3ccccc23)c2ccccc12.[Na+] [Compound 56, Acid Red 88 (Fast Red AV)] as the compound, how does the “effectiveness higher by” value read?
Its value is 1 log unit.
